Source: PubChem BioAssay AID1259254 (NCATS, 2017)

- Aim: 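Finding genes that stop cells copying their DNA twice in one cycle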 (primary screen)
- Cells: human HCT116 colorectal cancer cells
- Reagents: single siRNA against human genes
- Timing: 3 days
- Detection: 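Nuclei stained with Hoechst and imaged; cell-cycle phase assigned by DNA content; G2 share scaled per plate, non-targeting siRNA 0%, GMNN siRNA 100%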
- Reading the numbers: G2 robust z-score and G2 cells, % of GMNN control: higher = more G2 cells, more excess DNA replication
- Active means: 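An siRNA counts as active if its G2 robust z-score lies at least 5 MADs above the screen median; here such calls match roughly 38% of GMNN control or more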
The deposit covers about 59,000 reagents; below is a random part of them. About 1,550 of them (2.6%) were called active. 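G2 share is only a proxy for re-replication; each gene was hit by three separate siRNAs, and active genes were retested.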 The numbers tell different reagents against one gene apart. Not all columns of the deposit are shown. The record does not give: the amount of reagent.

no.	gene knocked down	reagent no.	G2 robust z-score	G2 cells, % of GMNN control	outcome
1	C1QL3 (complement C1q like 3)	1	0.309	5.14	inactive
2	C1QL3 (complement C1q like 3)	2	1.21	11.5	inactive
3	C1QL3 (complement C1q like 3)	3	0.447	6.11	inactive
4	BAG5 (BAG cochaperone 5)	1	-0.338	0.589	inactive
5	BAG5 (BAG cochaperone 5)	2	1.17	11.2	inactive
6	BAG5 (BAG cochaperone 5)	3	-0.16	1.84	inactive
7	SPSB1 (splA/ryanodine receptor domain and SOCS box containing 1)	1	1.37	12.6	inactive
8	SPSB1 (splA/ryanodine receptor domain and SOCS box containing 1)	2	11.1	81	active
9	SPSB1 (splA/ryanodine receptor domain and SOCS box containing 1)	3	-1.52	-7.71	inactive
10	SPDYE3 (speedy/RINGO cell cycle regulator family member E3)	1	0.234	4.61	inactive
11	SPDYE3 (speedy/RINGO cell cycle regulator family member E3)	2	-0.654	-1.63	inactive
12	SPDYE3 (speedy/RINGO cell cycle regulator family member E3)	3	0.211	4.45	inactive
13	LOC645100 (retired record)	1	-0.368	0.38	inactive
14	LOC645100 (retired record)	2	-0.651	-1.61	inactive
15	LOC645100 (retired record)	3	0.5	6.48	inactive
16	ZC3H11A (zinc finger CCCH-type containing 11A)	1	0.383	5.67	inactive
17	ZC3H11A (zinc finger CCCH-type containing 11A)	2	-0.49	-0.478	inactive
18	ZC3H11A (zinc finger CCCH-type containing 11A)	3	1.43	13	inactive
19	CATSPERE (catsper channel auxiliary subunit epsilon)	1	1.78	15.5	inactive
20	CATSPERE (catsper channel auxiliary subunit epsilon)	2	-0.116	2.15	inactive
21	CATSPERE (catsper channel auxiliary subunit epsilon)	3	-0.503	-0.57	inactive
22	MMGT1 (membrane magnesium transporter 1)	1	-0.465	-0.303	inactive
23	MMGT1 (membrane magnesium transporter 1)	2	-0.546	-0.873	inactive
24	MMGT1 (membrane magnesium transporter 1)	3	-0.912	-3.45	inactive

Targets above whose target name begins with S or s:
gene knocked down	reagent no.	G2 robust z-score	G2 cells, % of GMNN control	outcome
SPSB1 (splA/ryanodine receptor domain and SOCS box containing 1)	1	1.37	12.6	inactive
SPSB1 (splA/ryanodine receptor domain and SOCS box containing 1)	2	11.1	81	active
SPSB1 (splA/ryanodine receptor domain and SOCS box containing 1)	3	-1.52	-7.71	inactive
SPDYE3 (speedy/RINGO cell cycle regulator family member E3)	1	0.234	4.61	inactive
SPDYE3 (speedy/RINGO cell cycle regulator family member E3)	2	-0.654	-1.63	inactive
SPDYE3 (speedy/RINGO cell cycle regulator family member E3)	3	0.211	4.45	inactive

Further results follow:
no.	gene knocked down	reagent no.	G2 robust z-score	G2 cells, % of GMNN control	outcome
25	IL21R (interleukin 21 receptor)	1	0.641	7.48	inactive
26	IL21R (interleukin 21 receptor)	2	1.37	12.6	inactive
27	IL21R (interleukin 21 receptor)	3	1.08	10.5	inactive
28	TNFRSF10D (TNF receptor superfamily member 10d)	1	-0.388	0.234	inactive
29	TNFRSF10D (TNF receptor superfamily member 10d)	2	0.929	9.5	inactive
30	TNFRSF10D (TNF receptor superfamily member 10d)	3	-0.259	1.14	inactive
31	TRIM35 (tripartite motif containing 35)	1	1.73	15.1	inactive
32	TRIM35 (tripartite motif containing 35)	2	2.5	20.6	inactive
33	TRIM35 (tripartite motif containing 35)	3	2.31	19.3	inactive
34	TIAM1 (TIAM Rac1 associated GEF 1)	1	-0.829	-2.86	inactive
35	TIAM1 (TIAM Rac1 associated GEF 1)	2	-0.669	-1.74	inactive
36	TIAM1 (TIAM Rac1 associated GEF 1)	3	0.212	4.46	inactive
37	CGA (glycoprotein hormones, alpha polypeptide)	1	1.43	13	inactive
38	CGA (glycoprotein hormones, alpha polypeptide)	2	-0.631	-1.47	inactive
39	CGA (glycoprotein hormones, alpha polypeptide)	3	-0.0703	2.47	inactive
40	TGFB3 (transforming growth factor beta 3)	1	1	10	inactive
41	TGFB3 (transforming growth factor beta 3)	2	2.5	20.5	inactive
42	TGFB3 (transforming growth factor beta 3)	3	0.147	4	inactive
43	NEIL2 (nei like DNA glycosylase 2)	1	-0.594	-1.21	inactive
44	NEIL2 (nei like DNA glycosylase 2)	2	0.481	6.35	inactive
45	NEIL2 (nei like DNA glycosylase 2)	3	-0.0445	2.65	inactive
46	SIGLEC5 (sialic acid binding Ig like lectin 5)	1	2.05	17.4	inactive
47	SIGLEC5 (sialic acid binding Ig like lectin 5)	2	1.69	14.9	inactive
48	SIGLEC5 (sialic acid binding Ig like lectin 5)	3	-1.03	-4.25	inactive
49	PHF11 (PHD finger protein 11)	1	-0.893	-3.32	inactive
50	PHF11 (PHD finger protein 11)	2	4.7	36	inactive
51	PHF11 (PHD finger protein 11)	3	0.373	5.59	inactive
52	CCL4 (C-C motif chemokine ligand 4)	1	1.88	16.2	inactive
53	CCL4 (C-C motif chemokine ligand 4)	2	-0.346	0.536	inactive
54	CCL4 (C-C motif chemokine ligand 4)	3	3.89	30.3	inactive
55	MAPT (microtubule associated protein tau)	1	0.876	9.13	inactive
56	MAPT (microtubule associated protein tau)	2	-0.916	-3.48	inactive
57	MAPT (microtubule associated protein tau)	3	0.804	8.63	inactive
58	PHGDH (phosphoglycerate dehydrogenase)	1	-1.48	-7.43	inactive
59	PHGDH (phosphoglycerate dehydrogenase)	2	-1.5	-7.58	inactive
60	PHGDH (phosphoglycerate dehydrogenase)	3	1.26	11.8	inactive
61	AQP8 (aquaporin 8)	1	-1.63	-8.51	inactive
62	AQP8 (aquaporin 8)	2	-0.267	1.09	inactive
63	AQP8 (aquaporin 8)	3	0.468	6.26	inactive
64	NCK2 (NCK adaptor protein 2)	1	3.05	24.4	inactive
65	NCK2 (NCK adaptor protein 2)	2	-0.172	1.76	inactive
66	NCK2 (NCK adaptor protein 2)	3	0.59	7.12	inactive
67	BRIP1 (BRCA1 interacting DNA helicase 1)	1	2.95	23.7	inactive
68	BRIP1 (BRCA1 interacting DNA helicase 1)	2	-0.401	0.143	inactive
69	BRIP1 (BRCA1 interacting DNA helicase 1)	3	-0.754	-2.34	inactive
